# Source: US12162957 (dated 2024)
# [ ]: non-standard residue; d: D form. The star is where a group is joined. Asn(Trt) = N[C@@H](CC(=O)NC(c1ccccc1)(c1ccccc1)c1ccccc1)C(=O)O; Trt = c1ccc(C(c2ccccc2)(c2ccccc2)*)cc1; Fmoc = O=C(OCC1c2ccccc2-c2ccccc21)*; OtBu = CC(C)(C)O*; Acm = CC(=O)NC*
# Experiments:
# [1] = general procedure: Fmoc solid-phase peptide synthesis; 2-ClTrt; DIC/HOBt; conditions: whole synthesis
# [2] = general procedure: Fmoc solid-phase peptide synthesis; Wang; DIC/HOBt; conditions: whole synthesis
Substance,crude yield [1],crude HPLC purity ([1]; HPLC),crude yield [2],crude HPLC purity ([2]; HPLC)
Fmoc-[Asn(Trt)]D(OtBu)E(OtBu)C(Trt)E(OtBu)-OH,90%,95%,,
H-NDECELC(Acm)VNVACTGC(Acm)L-OH (cysteine pairing not given here),,,80%,50%
